The supplement of paper PMC10849652
The list shows a part of the results. Residues, ends and D or L forms follow the SMILES beside them. *: point of attachment. Cbz = O=C(OCc1ccccc1)*

By UniProt entry, the sequences of proteins in these tests, tags left out. Where a name states a change or a piece, a line headed by the entry shows the natural chain unless it says otherwise.
UniProt Q9H2U2: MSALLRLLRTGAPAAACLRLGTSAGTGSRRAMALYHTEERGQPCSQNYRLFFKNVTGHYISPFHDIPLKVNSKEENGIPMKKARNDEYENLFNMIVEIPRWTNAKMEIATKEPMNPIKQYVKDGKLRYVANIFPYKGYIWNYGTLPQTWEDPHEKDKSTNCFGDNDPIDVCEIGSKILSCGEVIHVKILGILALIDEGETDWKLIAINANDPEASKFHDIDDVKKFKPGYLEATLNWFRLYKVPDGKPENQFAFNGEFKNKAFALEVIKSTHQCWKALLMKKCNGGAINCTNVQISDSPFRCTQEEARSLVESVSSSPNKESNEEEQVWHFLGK
UniProt Q15181: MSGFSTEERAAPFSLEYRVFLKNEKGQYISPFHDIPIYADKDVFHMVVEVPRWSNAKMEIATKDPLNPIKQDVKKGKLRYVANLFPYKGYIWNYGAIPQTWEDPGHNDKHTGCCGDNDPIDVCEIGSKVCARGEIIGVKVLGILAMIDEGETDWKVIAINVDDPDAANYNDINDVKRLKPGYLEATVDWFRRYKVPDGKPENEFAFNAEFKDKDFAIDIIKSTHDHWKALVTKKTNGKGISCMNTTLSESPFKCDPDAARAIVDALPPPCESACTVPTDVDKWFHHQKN
UniProt P30405: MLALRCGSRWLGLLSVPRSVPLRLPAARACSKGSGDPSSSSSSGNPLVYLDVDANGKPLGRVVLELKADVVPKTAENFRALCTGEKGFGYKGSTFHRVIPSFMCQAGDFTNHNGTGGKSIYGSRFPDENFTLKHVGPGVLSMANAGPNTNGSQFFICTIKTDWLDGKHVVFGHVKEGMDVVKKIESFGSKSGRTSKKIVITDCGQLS
UniProt O60568: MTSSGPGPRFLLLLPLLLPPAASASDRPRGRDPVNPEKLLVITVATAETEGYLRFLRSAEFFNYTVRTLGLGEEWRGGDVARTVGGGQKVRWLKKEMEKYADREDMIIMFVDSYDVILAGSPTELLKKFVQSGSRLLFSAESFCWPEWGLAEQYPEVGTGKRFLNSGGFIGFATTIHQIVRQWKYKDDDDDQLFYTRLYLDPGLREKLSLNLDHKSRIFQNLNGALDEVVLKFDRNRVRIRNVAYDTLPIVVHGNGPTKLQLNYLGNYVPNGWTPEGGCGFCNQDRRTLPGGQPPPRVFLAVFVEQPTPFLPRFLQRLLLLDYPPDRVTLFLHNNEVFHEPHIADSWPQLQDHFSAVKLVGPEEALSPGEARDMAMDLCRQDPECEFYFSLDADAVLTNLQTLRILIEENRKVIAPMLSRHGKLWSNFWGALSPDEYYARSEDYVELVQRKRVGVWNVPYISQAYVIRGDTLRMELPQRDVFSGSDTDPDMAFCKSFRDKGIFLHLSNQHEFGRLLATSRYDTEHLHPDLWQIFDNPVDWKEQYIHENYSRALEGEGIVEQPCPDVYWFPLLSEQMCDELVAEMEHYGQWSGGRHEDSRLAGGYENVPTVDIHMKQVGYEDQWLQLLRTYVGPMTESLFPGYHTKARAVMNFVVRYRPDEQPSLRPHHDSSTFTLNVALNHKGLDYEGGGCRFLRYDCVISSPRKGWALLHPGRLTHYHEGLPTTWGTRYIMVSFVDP
UniProt Q8WZA1: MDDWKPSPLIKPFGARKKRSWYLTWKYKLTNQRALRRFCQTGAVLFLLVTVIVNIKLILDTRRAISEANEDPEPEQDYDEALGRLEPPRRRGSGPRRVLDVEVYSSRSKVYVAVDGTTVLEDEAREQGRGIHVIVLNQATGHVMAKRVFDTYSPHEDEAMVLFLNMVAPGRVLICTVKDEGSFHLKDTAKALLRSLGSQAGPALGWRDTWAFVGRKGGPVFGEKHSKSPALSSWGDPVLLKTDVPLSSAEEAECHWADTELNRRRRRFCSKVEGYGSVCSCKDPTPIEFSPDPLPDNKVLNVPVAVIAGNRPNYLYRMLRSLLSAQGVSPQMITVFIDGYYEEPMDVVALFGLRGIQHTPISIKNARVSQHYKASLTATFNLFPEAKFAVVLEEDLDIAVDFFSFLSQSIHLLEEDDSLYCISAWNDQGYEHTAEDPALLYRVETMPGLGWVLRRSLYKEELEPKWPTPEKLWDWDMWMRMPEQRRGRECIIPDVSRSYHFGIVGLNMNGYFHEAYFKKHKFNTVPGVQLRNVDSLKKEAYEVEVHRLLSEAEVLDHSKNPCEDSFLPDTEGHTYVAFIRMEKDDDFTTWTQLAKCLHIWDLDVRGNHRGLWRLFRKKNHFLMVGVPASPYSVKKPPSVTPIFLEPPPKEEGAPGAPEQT
UniProt O95707: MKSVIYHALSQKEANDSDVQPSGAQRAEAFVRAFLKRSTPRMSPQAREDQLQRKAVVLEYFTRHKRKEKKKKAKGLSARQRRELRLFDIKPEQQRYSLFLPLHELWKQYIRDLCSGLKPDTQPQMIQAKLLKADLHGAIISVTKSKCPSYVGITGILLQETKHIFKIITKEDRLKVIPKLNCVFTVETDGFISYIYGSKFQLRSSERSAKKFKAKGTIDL
UniProt Q9NZ53: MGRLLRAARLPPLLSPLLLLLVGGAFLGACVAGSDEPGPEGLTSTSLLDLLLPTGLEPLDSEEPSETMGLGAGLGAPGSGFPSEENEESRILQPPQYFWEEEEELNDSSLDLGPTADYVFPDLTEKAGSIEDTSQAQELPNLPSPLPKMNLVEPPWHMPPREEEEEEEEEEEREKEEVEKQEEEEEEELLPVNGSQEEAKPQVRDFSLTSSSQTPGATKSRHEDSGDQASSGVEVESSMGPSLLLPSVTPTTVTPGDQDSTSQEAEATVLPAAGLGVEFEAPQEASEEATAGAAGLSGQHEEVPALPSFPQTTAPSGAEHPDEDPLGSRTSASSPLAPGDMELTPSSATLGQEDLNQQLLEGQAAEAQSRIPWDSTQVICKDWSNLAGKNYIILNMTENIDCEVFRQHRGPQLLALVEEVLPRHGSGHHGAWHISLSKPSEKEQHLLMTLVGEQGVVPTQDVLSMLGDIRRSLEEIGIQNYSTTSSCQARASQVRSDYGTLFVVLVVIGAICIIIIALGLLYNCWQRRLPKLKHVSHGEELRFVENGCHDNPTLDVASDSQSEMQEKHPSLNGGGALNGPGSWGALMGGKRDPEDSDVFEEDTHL
UniProt Q9NVS9: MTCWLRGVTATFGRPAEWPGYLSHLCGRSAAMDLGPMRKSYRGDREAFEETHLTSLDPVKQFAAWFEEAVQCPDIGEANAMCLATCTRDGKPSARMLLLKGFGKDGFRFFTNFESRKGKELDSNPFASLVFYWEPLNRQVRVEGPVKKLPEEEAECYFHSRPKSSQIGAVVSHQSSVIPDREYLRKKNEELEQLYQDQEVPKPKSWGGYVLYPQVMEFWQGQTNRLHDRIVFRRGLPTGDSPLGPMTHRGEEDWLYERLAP
UniProt Q9NQ55: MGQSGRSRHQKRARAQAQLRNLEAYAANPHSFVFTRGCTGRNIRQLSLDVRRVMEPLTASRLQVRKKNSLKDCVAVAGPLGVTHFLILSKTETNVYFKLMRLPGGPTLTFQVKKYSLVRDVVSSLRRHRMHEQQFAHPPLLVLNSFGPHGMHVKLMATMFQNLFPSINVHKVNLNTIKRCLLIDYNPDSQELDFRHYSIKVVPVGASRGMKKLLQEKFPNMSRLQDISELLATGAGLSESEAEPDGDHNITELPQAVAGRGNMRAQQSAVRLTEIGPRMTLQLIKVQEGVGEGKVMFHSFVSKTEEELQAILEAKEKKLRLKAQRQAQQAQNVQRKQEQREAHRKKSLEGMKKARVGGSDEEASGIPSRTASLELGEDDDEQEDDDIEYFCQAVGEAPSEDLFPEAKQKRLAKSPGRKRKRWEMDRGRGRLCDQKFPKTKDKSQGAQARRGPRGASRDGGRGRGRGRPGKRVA
UniProt Q7Z4H8: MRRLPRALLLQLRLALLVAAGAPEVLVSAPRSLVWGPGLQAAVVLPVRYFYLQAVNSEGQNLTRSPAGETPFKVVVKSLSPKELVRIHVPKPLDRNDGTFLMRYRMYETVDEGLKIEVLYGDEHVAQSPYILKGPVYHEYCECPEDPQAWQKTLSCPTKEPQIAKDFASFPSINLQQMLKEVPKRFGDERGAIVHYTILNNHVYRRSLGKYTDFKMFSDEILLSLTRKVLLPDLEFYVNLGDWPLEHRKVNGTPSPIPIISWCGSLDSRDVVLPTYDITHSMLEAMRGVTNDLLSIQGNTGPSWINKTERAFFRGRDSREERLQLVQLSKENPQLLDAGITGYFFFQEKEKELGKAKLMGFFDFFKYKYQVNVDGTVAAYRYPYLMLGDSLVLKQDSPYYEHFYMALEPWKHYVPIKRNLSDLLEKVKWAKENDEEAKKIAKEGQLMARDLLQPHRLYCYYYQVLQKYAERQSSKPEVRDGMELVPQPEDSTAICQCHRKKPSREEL
UniProt Q9BY77: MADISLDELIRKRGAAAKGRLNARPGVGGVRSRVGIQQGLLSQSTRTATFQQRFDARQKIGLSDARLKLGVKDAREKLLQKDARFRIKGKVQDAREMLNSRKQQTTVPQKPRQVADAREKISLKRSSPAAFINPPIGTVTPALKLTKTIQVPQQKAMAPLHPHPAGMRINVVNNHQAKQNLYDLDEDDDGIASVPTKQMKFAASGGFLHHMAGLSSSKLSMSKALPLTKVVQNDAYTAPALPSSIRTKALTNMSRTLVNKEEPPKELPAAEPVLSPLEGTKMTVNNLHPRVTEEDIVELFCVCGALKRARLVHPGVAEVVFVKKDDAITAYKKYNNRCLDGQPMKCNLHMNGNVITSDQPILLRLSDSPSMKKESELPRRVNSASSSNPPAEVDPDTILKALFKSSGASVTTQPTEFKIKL
UniProt Q8N490: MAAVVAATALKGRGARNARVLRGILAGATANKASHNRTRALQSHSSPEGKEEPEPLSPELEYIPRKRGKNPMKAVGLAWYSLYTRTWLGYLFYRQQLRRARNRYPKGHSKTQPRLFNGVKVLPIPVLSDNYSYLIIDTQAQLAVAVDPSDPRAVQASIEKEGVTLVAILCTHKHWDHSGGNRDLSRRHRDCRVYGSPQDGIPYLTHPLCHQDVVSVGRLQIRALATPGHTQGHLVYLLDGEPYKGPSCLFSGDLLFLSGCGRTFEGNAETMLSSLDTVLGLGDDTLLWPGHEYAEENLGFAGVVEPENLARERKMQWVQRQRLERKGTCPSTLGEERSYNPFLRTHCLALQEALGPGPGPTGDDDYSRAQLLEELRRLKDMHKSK
UniProt Q06203, whole entry, looked up: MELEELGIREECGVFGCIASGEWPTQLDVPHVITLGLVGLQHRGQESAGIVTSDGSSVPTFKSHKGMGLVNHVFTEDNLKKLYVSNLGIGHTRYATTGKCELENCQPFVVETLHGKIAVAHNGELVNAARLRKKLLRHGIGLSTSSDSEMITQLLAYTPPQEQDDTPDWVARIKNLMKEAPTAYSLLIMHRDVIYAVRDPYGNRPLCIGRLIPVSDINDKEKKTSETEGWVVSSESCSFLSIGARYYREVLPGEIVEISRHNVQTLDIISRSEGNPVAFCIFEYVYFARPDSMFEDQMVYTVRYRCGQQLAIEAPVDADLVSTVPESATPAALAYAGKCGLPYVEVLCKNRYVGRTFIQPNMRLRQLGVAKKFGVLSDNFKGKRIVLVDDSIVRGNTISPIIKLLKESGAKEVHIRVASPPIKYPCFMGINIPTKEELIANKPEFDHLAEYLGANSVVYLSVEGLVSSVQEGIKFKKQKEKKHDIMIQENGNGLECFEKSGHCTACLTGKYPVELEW
UniProt P35813: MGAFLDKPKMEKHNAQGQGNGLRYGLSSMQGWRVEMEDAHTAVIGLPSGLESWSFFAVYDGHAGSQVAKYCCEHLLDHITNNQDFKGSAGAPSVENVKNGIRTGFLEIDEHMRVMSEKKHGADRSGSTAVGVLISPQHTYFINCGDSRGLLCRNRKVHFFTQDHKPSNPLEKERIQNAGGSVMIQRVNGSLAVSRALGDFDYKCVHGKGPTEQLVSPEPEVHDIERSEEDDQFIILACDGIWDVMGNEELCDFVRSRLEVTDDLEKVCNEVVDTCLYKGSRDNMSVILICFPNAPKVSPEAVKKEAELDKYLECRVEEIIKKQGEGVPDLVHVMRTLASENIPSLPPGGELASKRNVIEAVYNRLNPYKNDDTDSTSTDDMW

Assays:
Experiment in all cases: log2 fold change, soluble protein after heating vs DMSO (PISA); higher = thermal stabilisation; K562 cells, 10 uM, 30 min; active = over 0.2 and 3.5 SD of the protein, either way, in both replicates (recomputed)
erlotinib = compound: C#Cc1cccc(Nc2ncnc3cc(OCCOC)c(OCCOC)cc23)c1 [erlotinib]
How it was run: (§1)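 K562 cells (2×10^6 cells/mL) were treated with 10 μM compound for 30 min, and aliquots were heated for 3 min over 48°C-58°C. Pooled aliquots were extracted in PBS with 0.5% NP-40 at 4°C, and the supernatant after 21,000xg for 90 min was measured by TMTpro 16plex LC-MS/MS with channel sums equalised. Reported thermal stability, relative to control samples and from duplicates, is a log2 fold change.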

[1] = compound: C/C(=N\NC(=O)C1=CC(=CC=C1)S(=O)(=O)N2CCOCC2)/C3=C(C=CC(=C3)Cl)O
How it was run: as §1

[2] = compound: C1=CC(=C(C=C1Cl)C2=NC3=NC=CN=C3C(=N2)NC4=CC=NC=C4)F
How it was run: as §1

[3] = compound: C1=CC(=CC=C1C2=NC3=C(N2)C=C(C=C3)C(=O)N)OC4=CC=C(C=C4)Cl
How it was run: as §1

[4] = compound: C1=CC2=C(C=CC(=C2)/C=C\3/C(=O)NC(=NCC4=CC=CS4)S3)N=C1
How it was run: as §1

[5] = compound: C1=CC2=NC=CN=C2C=C1/C=C/3\C(=O)NC(=O)S3
How it was run: as §1

[6] = compound: C1=CC=C(C=C1)C2=NC(=C(N2)C3=CC=NC=C3)C4=CC(=C(C=C4)Cl)O
How it was run: as §1

[7] = compound: C1=CC=C2C(=C1)C3=NNC4=CC=CC(=C43)C2=O
How it was run: as §1

[8] = compound: C1CCN(C1)C(=O)NC2=CC=CC(=C2)NC3=NC=C(C(=N3)NCCC4=CN=CN4)Br
How it was run: as §1

[9] = compound: C1CN(CCC1(CC2=CC=C(C=C2)Cl)N)C3=NC=NC4=C3C=CN4
How it was run: as §1

IRAK-1-4 Inhibitor I = compound: C1COCCN1CCN2C3=CC=CC=C3N=C2NC(=O)C4=CC(=CC=C4)[N+](=O)[O-] [IRAK-1-4 Inhibitor I]
How it was run: as §1

ibrutinib = compound: C=CC(=O)N1CCC[C@@H](n2nc(-c3ccc(Oc4ccccc4)cc3)c3c(N)ncnc32)C1 [ibrutinib]
How it was run: as §1

[10] = compound: CC(=O)c1cnc2ccc(-c3cc(Cl)c(O)c(Cl)c3)nc2c1N[C@H]1CC[C@H](CN(C)C)CC1
How it was run: as §1

ralimetinib = compound: CC(C)(C)Cn1c(N)nc2ccc(-c3[nH]c(C(C)(C)C)nc3-c3ccc(F)cc3)nc21 [ralimetinib]
How it was run: as §1

[11] = compound: CC(C)(O)CC(=O)NCCn1ccc2ncnc(Nc3ccc(Oc4cccc(C(F)(F)F)c4)c(Cl)c3)c21
How it was run: as §1

[12] = compound: CC(C)C1=C2N=C(C=C(N2N=C1)NCC3=CC=CC=C3)NCCCCCCN
How it was run: as §1

[13] = compound: CC(C)C[C@@H](C=O)NC(=O)[C@H](CC(C)C)NC(=O)[C@H](CC(C)C)NC(=O)OCc1ccccc1
How it was run: as §1

pinometostat = compound: CC(C)N(C[C@H]1O[C@@H](n2cnc3c(N)ncnc32)[C@H](O)[C@@H]1O)[C@H]1C[C@@H](CCc2nc3cc(C(C)(C)C)ccc3[nH]2)C1 [pinometostat]
How it was run: as §1

[14] = compound: CC1=C(C(CC(=O)N1)C2=CC=C(C=C2)C(F)(F)F)C(=O)NC3=C(C=C4C(=C3)C=NN4)F
How it was run: as §1

[15] = compound: CC1=C(C2=C(C=C1)C(=O)C3=CC=CC=C3N2CCCN)C
How it was run: as §1

Measured: log2 fold change

PPIP5K2 (UniProt O43314)
inactive: erlotinib 0.007 | [1] 0.047 | [2] 0.053 | [3] 0.021 | [4] 0.035 | [5] -0.001 | [6] -0.014 | [7] 0.007 | [8] -0.001 | [9] 0 | IRAK-1-4 Inhibitor I 0.01 | ibrutinib 0.006 | [10] -0.049 | ralimetinib -0.015 | [11] -0.029 | [12] 0.024 | [13] 0.007 | pinometostat -0.042 | [14] -0.013 | [15] 0.027

PPA2 (UniProt Q9H2U2)
inactive: erlotinib 0.009 | [1] 0.027 | [2] 0.068 | [3] -0.006 | [4] 0.025 | [5] -0.002 | [6] 0.028 | [7] 0.007 | [8] 0.024 | [9] -0.041 | IRAK-1-4 Inhibitor I 0.045 | ibrutinib 0.01 | [10] -0.003 | ralimetinib -0.048 | [11] -0.031 | [12] -0.031 | [13] -0.046 | pinometostat -0.044 | [14] -0.007 | [15] 0.024

PPA1 (UniProt Q15181)
inactive: erlotinib 0.039 | [1] 0.039 | [2] 0.016 | [3] 0 | [4] 0.039 | [5] -0.054 | [6] -0.016 | [7] 0.032 | [8] 0.015 | [9] -0.031 | IRAK-1-4 Inhibitor I 0.028 | ibrutinib -0.034 | [10] -0.008 | ralimetinib -0.048 | [11] -0.033 | [12] 0.035 | [13] -0.006 | pinometostat -0.033 | [14] -0.044 | [15] -0.009

PPIF (UniProt P30405)
inactive: erlotinib 0.054 | [1] 0.043 | [2] -0.117 | [3] -0.084 | [4] 0.064 | [5] -0.022 | [6] -0.011 | [7] 0.04 | [8] 0.008 | [9] 0.021 | IRAK-1-4 Inhibitor I 0.092 | ibrutinib 0.012 | [10] -0.015 | ralimetinib -0.056 | [11] 0.003 | [12] 0.008 | [13] 0.05 | pinometostat 0 | [14] -0.011 | [15] 0.048

PLOD3 (UniProt O60568)
inactive: erlotinib -0.077 | [1] -0.033 | [2] -0.1 | [3] 0.018 | [4] 0.048 | [5] 0.054 | [6] -0.013 | [7] 0.018 | [8] 0.045 | [9] -0.039 | IRAK-1-4 Inhibitor I -0.038 | ibrutinib -0.04 | [10] -0.014 | ralimetinib 0.008 | [11] 0.065 | [12] 0.018 | [13] 0.026 | pinometostat 0.071 | [14] 0.007 | [15] -0.004

POMGNT1 isoform 2 (UniProt Q8WZA1)
inactive: erlotinib 0.077 | [1] -0.037 | [2] -0.042 | [3] 0.005 | [4] 0.08 | [5] 0.044 | [6] -0.159 | [7] 0.014 | [8] 0.13 | [9] -0.062 | IRAK-1-4 Inhibitor I -0.041 | ibrutinib -0.065 | [10] -0.072 | ralimetinib -0.216 | [11] 0.167 | [12] 0.081 | [13] 0.21 | pinometostat -0.085 | [14] -0.084 | [15] 0.057

POP4 (UniProt O95707)
inactive: erlotinib 0.001 | [1] 0.055 | [2] -0.075 | [3] 0.115 | [4] 0.051 | [5] -0.022 | [6] -0.004 | [7] -0.006 | [8] 0.014 | [9] -0.031 | IRAK-1-4 Inhibitor I -0.04 | ibrutinib 0.008 | [10] 0.016 | ralimetinib 0.063 | [11] 0.006 | [12] -0.033 | [13] 0.048 | pinometostat 0.085 | [14] -0.069 | [15] -0.106

POTEF (UniProt A5A3E0)
inactive: erlotinib 0.008 | [1] -0.023 | [2] 0.039 | [3] 0.048 | [4] -0.004 | [5] 0.001 | [6] -0.043 | [7] -0.007 | [8] -0.023 | [9] 0.044 | IRAK-1-4 Inhibitor I 0.047 | ibrutinib 0.037 | [10] -0.006 | ralimetinib -0.023 | [11] 0.011 | [12] 0.064 | [13] 0.028 | pinometostat -0.007 | [14] 0 | [15] -0.023

PODXL2 (UniProt Q9NZ53)
inactive: erlotinib -0.001 | [1] 0.037 | [2] -0.002 | [3] 0.1 | [4] -0.207 | [5] 0.021 | [6] -0.011 | [7] -0.03 | [8] -0.064 | [9] 0.079 | IRAK-1-4 Inhibitor I 0.115 | ibrutinib -0.027 | [10] -0.03 | ralimetinib 0.042 | [11] -0.007 | [12] 0.021 | [13] -0.022 | pinometostat 0.021 | [14] -0.033 | [15] -0.132

PNPO (UniProt Q9NVS9)
inactive: erlotinib -0.04 | [1] 0.023 | [2] -0.002 | [3] 0.077 | [4] 0.049 | [5] -0.015 | [6] 0.123 | [7] -0.014 | [8] -0.01 | [9] 0.002 | IRAK-1-4 Inhibitor I 0.031 | ibrutinib 0 | [10] -0.086 | ralimetinib 0.062 | [11] -0.012 | [12] 0.072 | [13] -0.012 | pinometostat -0.055 | [14] 0.002 | [15] 0.037

PPAN isoform 3 (UniProt Q9NQ55)
inactive: erlotinib -0.041 | [1] -0.004 | [2] -0.417 | [3] -0.049 | [4] -0.117 | [5] 0.026 | [6] -0.104 | [7] 0.082 | [8] -0.117 | [9] -0.384 | IRAK-1-4 Inhibitor I -0.102 | ibrutinib 0.009 | [10] 0.231 | ralimetinib 0.171 | [11] 0.111 | [12] 0.328 | [13] 0.091 | pinometostat 0.429 | [14] 0.167 | [15] -0.814

POGLUT3 (UniProt Q7Z4H8)
inactive: erlotinib -0.041 | [1] 0.031 | [2] 0.024 | [3] 0.027 | [4] -0.013 | [5] 0.005 | [6] -0.037 | [7] 0.033 | [8] -0.018 | [9] -0.015 | IRAK-1-4 Inhibitor I -0.051 | ibrutinib -0.038 | [10] -0.005 | ralimetinib -0.02 | [11] -0.012 | [12] -0.065 | [13] 0.028 | pinometostat 0.003 | [14] 0.039 | [15] 0.01

POLDIP3 (UniProt Q9BY77)
inactive: erlotinib 0.024 | [1] -0.063 | [2] 0.007 | [3] -0.007 | [4] -0.097 | [5] 0.015 | [6] -0.108 | [7] 0.012 | [8] 0.02 | [9] 0.08 | IRAK-1-4 Inhibitor I -0.153 | ibrutinib -0.007 | [10] 0.117 | ralimetinib 0.008 | [11] 0.038 | [12] 0.07 | [13] 0.074 | pinometostat 0.045 | [14] -0.03 | [15] 0.065

PNKD isoform 2 (UniProt Q8N490)
inactive: erlotinib 0.047 | [1] 0.001 | [2] -0.015 | [3] 0.027 | [4] -0.045 | [5] -0.001 | [6] 0.014 | [7] 0.008 | [8] -0.011 | [9] -0.035 | IRAK-1-4 Inhibitor I 0.055 | ibrutinib 0.037 | [10] -0.045 | ralimetinib -0.078 | [11] -0.072 | [12] -0.073 | [13] -0.011 | pinometostat 0.109 | [14] 0.049 | [15] 0.102

PPAT (UniProt Q06203)
inactive: erlotinib 0.003 | [1] -0.015 | [2] 0.03 | [3] 0.004 | [4] 0.036 | [5] 0.002 | [6] -0.012 | [7] -0.012 | [8] -0.015 | [9] 0.06 | IRAK-1-4 Inhibitor I 0.004 | ibrutinib 0.013 | [10] 0 | ralimetinib -0.075 | [11] -0.017 | [12] 0.08 | [13] -0.022 | pinometostat -0.051 | [14] 0.001 | [15] 0.037

PPM1A isoform 3 (UniProt P35813)
inactive: erlotinib -0.015 | [1] 0.038 | [2] 0.024 | [3] 0.03 | [4] 0.045 | [5] -0.031 | [6] -0.022 | [7] -0.005 | [8] 0.032 | [9] -0.021 | IRAK-1-4 Inhibitor I -0.003 | ibrutinib -0.039 | [10] -0.07 | ralimetinib -0.012 | [11] -0.132 | [12] -0.053 | [13] 0.049 | pinometostat -0.003 | [14] 0.009 | [15] -0.006

2 entries drawn at random from those above, as already listed:
PODXL2 (UniProt Q9NZ53)
inactive: erlotinib -0.001 | [1] 0.037 | [2] -0.002 | [3] 0.1 | [4] -0.207 | [5] 0.021 | [6] -0.011 | [7] -0.03 | [8] -0.064 | [9] 0.079 | IRAK-1-4 Inhibitor I 0.115 | ibrutinib -0.027 | [10] -0.03 | ralimetinib 0.042 | [11] -0.007 | [12] 0.021 | [13] -0.022 | pinometostat 0.021 | [14] -0.033 | [15] -0.132

PPIF (UniProt P30405)
inactive: erlotinib 0.054 | [1] 0.043 | [2] -0.117 | [3] -0.084 | [4] 0.064 | [5] -0.022 | [6] -0.011 | [7] 0.04 | [8] 0.008 | [9] 0.021 | IRAK-1-4 Inhibitor I 0.092 | ibrutinib 0.012 | [10] -0.015 | ralimetinib -0.056 | [11] 0.003 | [12] 0.008 | [13] 0.05 | pinometostat 0 | [14] -0.011 | [15] 0.048
